# PubChem BioAssay AID540256 (National Center for Advancing Translational Sciences (NCATS), 2011)
# Where “and” joins values, the source holds several entries; their conditions need not be identical. Equal entries are not always repeated. In all, about 300,000 compounds went through this assay and about 3,700 (1.2%) were called active. Inconclusive means that the source gave no clear call. Such entries were picked first, then a sample of the others. The call rests on the fitted dose curve; tested in HEK293 cells. Potencies beside an inconclusive call are fits to weak or partial responses and may not hold up.
# Experiment: qHTS for Inhibitors of binding or entry into cells for Lassa Virus; further: nearly all actives have a fitted effect of over 50% in size
# Conditions: Lassa virus pseudotype entry inhibition, cell reporter; activity change, negative = inhibition: at 37.9 µM (top of the series) unless noted
# On the % scale 0 is the no-effect control and ±100 the full control effect; potency means the concentration at half of the fitted maximal effect.
Compound,Potency,"activity change, negative = inhibition"
CC(=O)[C@@H]1[C@@H](C(=O)c2ccc(C)cc2)[C@]2(C(=O)Nc3ccccc32)[C@H]2C=Cc3cc(F)ccc3N12,"inconclusive: 29.1 µM [inhibitor, single point] and inconclusive: 10 µM [inhibitor, single point]",–
O=C(Nc1ccc2c(c1)CCC2)c1ccc(Br)o1,"inconclusive: 7.94 µM [inhibitor, partial curve, poor fit]",–
CCCCCCN1C[C@H](O)[C@@H](n2cc(C3CC3)nn2)C[C@H]1c1ccccc1,–,inactive: -1.68% [at 46.1 µM]
CCOC(=O)c1c(NC(=O)c2cc(=O)c3c(C)cc(C)cc3o2)sc(C)c1C,"inconclusive: 17.8 µM [inhibitor, single point]",–
CC(=O)Nc1ccc2nc(-c3ccccc3)cn2c1,"inconclusive: 3.16 µM [inhibitor, partial curve, poor fit]",–
COCC(C)NCc1cccc2ccccc12 (stereo unspecified),–,inactive: 9.09%
CCCCC(C)(O)C/C=C/[C@H]1[C@H](O)CC(=O)[C@@H]1CCCCCCC(=O)OC (stereo partly specified),"inconclusive: 18.4 µM [inhibitor, single point]",–
FC(F)(F)c1nnc(-c2ccccc2)nc1Oc1ccc(Cl)cc1Cl,–,inactive: 24%
O=[N+]([O-])c1ccc(OCc2cnc(Cl)s2)c([N+](=O)[O-])c1,–,inactive: -8.17%
Cc1nc2c(C(=O)N3CCCC3)cnn2c(C)c1Cc1c(F)cccc1Cl,"inconclusive: 2.91 µM [inhibitor, partial curve]",–
CCCS(=O)(=O)NCCc1sc2nc(-c3ccc(Cl)cc3)nn2c1C,"inconclusive: 3.55 µM [inhibitor, partial curve, poor fit]",–
O=C(c1ccco1)N1CCN(C(=O)C2CCCc3c2[nH]c2ccc(Cl)cc32)CC1 (stereo unspecified),active: 4.47 µM,–
CC(C)CN1C(=O)NC(NC(=O)c2cccs2)(C(F)(F)F)C1=O (stereo unspecified),–,inactive: 8.91%
Cc1[nH]n(-c2ccccc2)c(=O)c1N=Nc1ccc(Cl)cc1,"inconclusive: 8.91 µM [activator, partial curve, poor fit]",–
Cc1[nH]c2ccccc2c1C1(O)C(=O)N(Cc2ccccc2)c2ccc(Br)cc21 (stereo unspecified),"inconclusive: 10 µM [inhibitor, partial curve, poor fit]",–
COc1cc(/C=C2\COC/C(=C\c3cc(OC)c(OC)c(OC)c3)C2=O)cc(OC)c1OC,"inconclusive: 0.631 µM [inhibitor, full curve, poor fit]",–
COc1ccccc1CNc1ncnc2onc(-c3ccc(Cl)cc3)c12,–,inactive: 1.62% [at 46.1 µM]
CN(c1nnc(NC(=O)Nc2ccc(Br)cc2)s1)C1CCCCC1,–,inactive: -4.73% [at 46.1 µM]
Cc1ccc(NC(=S)NNC(=S)NC2CCCCC2)cc1,"inconclusive: 14.1 µM [inhibitor, single point]",–
N#C/C(=C(/O)c1ccc2c(c1)OCO2)c1nc2cc(C(F)(F)F)ccc2s1,"inconclusive: 10 µM [inhibitor, partial curve, poor fit]",–
COc1ccc(CN(C(=O)c2ccc(OCC(C)C)cc2)C2CCS(=O)(=O)C2)cc1 (stereo unspecified),"inconclusive: 35.5 µM [inhibitor, single point]",–
COc1cccc(C2C=C(c3ccc(C)cc3)Nc3c(C(=O)Nc4ccc(F)cc4)cnn32)c1OC (stereo unspecified),"inconclusive: 28.2 µM [inhibitor, single point]",–

Compound,Potency,"activity change, negative = inhibition"
CCOc1ccc(NC(=O)CSc2oc(-c3ccco3)nc2S(=O)(=O)c2ccc(Cl)cc2)cc1,–,inactive: -0.0501% [at 46.1 µM]
O=C(CCNS(=O)(=O)c1cccs1)NCc1ccccc1,–,inactive: 11.5%
CC1=C(C#N)c2nc(N)c(C#N)c(C)c2/C1=C\c1ccc(-c2ccccc2C(=O)O)o1,–,inactive: -15.5%
CCOc1cc(C(=O)N/N=C\c2cn(CC)nc2C)cc(OCC)c1OCC,"inconclusive: 22.4 µM [activator, single point]",–
CCn1c2ccccc2c2nc3cc(C(=O)O)ccc3nc21,–,inactive: -20.4%
COC(=O)C1OC1c1cc([N+](=O)[O-])ccc1OC (stereo unspecified),"inconclusive: 1.26 µM [activator, single point]",–
O=S(=O)(NCc1ccccc1)c1cc(Br)ccc1Br,"inconclusive: 0.0011 µM [activator, full curve, poor fit]",–
Cc1cccc(Oc2ccccc2NC(=O)CSCC(=O)Nc2cc(C)on2)c1,"inconclusive: 12.6 µM [inhibitor, partial curve, poor fit]",–
O=C(CSc1nc2ccccc2o1)c1cc2ccccc2oc1=O,–,inactive: 3.52%
CCOC(=O)N1CCc2c(sc(NCc3ccc(N(C)C)cc3)c2C(=O)Nc2ccccc2OCC)C1,"inconclusive: 5.01 µM [inhibitor, partial curve, poor fit]",–
CC1(C2CC2)NC(=O)NC1=O (stereo unspecified),"inconclusive: 22.4 µM [activator, partial curve, poor fit]",–
COc1ccc(-n2cnnc2SCC(=O)N2CCN(c3ccccc3)CC2)cc1,–,inactive: -11.7%
CS(=O)(=O)c1ccccc1C(=O)Nc1nc2ccccc2[nH]1,"inconclusive: 2.82 µM [activator, full curve, poor fit]",–
CCS(=O)(=O)N1CCCC(C(=O)c2ccc(OC)cc2C)C1 (stereo unspecified),"inconclusive: 0.631 µM [inhibitor, single point]",–
COc1ccccc1Nc1nn2c(=O)c3ccc(C(=O)NC4CCCCC4)cc3nc2s1,–,inactive: 8.47% [at 46.1 µM]
CCOc1cc(CNCCN2CCOCC2)ccc1OCc1ccccc1Cl,"inconclusive: 11.2 µM [inhibitor, partial curve, poor fit]",–
CC(C)n1cc(CN2CCCC(C(=O)Nc3cccc(-c4cc5ccccc5[nH]4)c3)C2)cn1 (stereo unspecified),active: 7.08 µM,–
COc1ccccc1NCC(O)Cn1c2ccccc2c2ccccc21 (stereo unspecified),"inconclusive: 29.1 µM [inhibitor, single point]",–
CCOc1ccc(CSC(=N)N)cc1[N+](=O)[O-],"inconclusive: 35.5 µM [inhibitor, single point]",–
Cc1sc2ncnc(SCC(=O)NC(=O)c3cccn3C)c2c1C,"inconclusive: 7.08 µM [inhibitor, full curve, poor fit]",–
COc1ccc(NC(=O)c2cc(-c3ccncc3)nc3ccccc23)c(OC)c1,"inconclusive: 22.4 µM [inhibitor, single point]",–
COc1ccc2c(c1)c(N=O)c(O)n2C,"inconclusive: 35.5 µM [inhibitor, single point]",–

# Not a retest: an excerpt of the list.
Compound,Potency,"activity change, negative = inhibition"
COc1ccc(-n2cnnc2SCC(=O)N2CCN(c3ccccc3)CC2)cc1,–,inactive: -11.7%
CS(=O)(=O)c1ccccc1C(=O)Nc1nc2ccccc2[nH]1,"inconclusive: 2.82 µM [activator, full curve, poor fit]",–

# Carrying on:

Compound,Potency,"activity change, negative = inhibition"
CCOC(=O)C1C(=O)C=C(c2ccc(C)cc2)CC1c1cccc([N+](=O)[O-])c1 (stereo unspecified),"inconclusive: 35.5 µM [inhibitor, partial curve, poor fit]",–
O=C(Nc1cccc(S(=O)(=O)N2CCCCCC2)c1)c1cc(=O)c2ccccc2o1,–,inactive: -7.09%
COc1ccc(S(=O)(=O)N2CCN(C(=O)c3cc(-c4ccc(Br)cc4)n[nH]3)CC2)cc1OC,active: 10 µM,–
CC(=O)N1c2ccc(S(=O)(=O)NCC3CCC(C(=O)Nc4cccc(F)c4)CC3)cc2CC1C (stereo unspecified),"inconclusive: 20 µM [inhibitor, partial curve, poor fit]",–
Cc1cccc(NS(=O)(=O)c2cccc(C(=O)N3CCN(c4ccccn4)CC3)c2)c1,"inconclusive: 11.2 µM [inhibitor, partial curve, poor fit]",–
c1ccc(CSc2nc3ccccc3[nH]2)cc1,"inconclusive: 14.6 µM [inhibitor, partial curve]",–
COC(=O)c1ccc(Oc2nc3c(c(=O)n(C)c(=O)n3C)n2CCC(C)C)cc1,"inconclusive: 2.51 µM [inhibitor, partial curve]",–
CCCCC(=O)Nc1ccc2oc(-c3ccncc3)nc2c1,"inconclusive: 7.3 µM [activator, single point]",–
O=C(CCN1CCN(C(c2ccccc2)c2ccccc2)CC1)N/N=C/c1ccc(O)cc1,"inconclusive: 35.5 µM [inhibitor, partial curve, poor fit]",–
Cc1c(Nc2nc3ccccc3nc2N2CCN(c3ccccc3)CC2)c(=O)n(-c2ccccc2)n1C,"inconclusive: 9.2 µM [inhibitor, partial curve]",–
CCCOC(=O)Nc1nc(-c2ccc(C)cc2)c(C)s1,active: 11.2 µM,–
CCOC(=O)c1cc(-c2ccc(OC)cc2)n(CCC(=O)NC2CCC(C)CC2)c1C (stereo unspecified),"inconclusive: 11.2 µM [inhibitor, partial curve, poor fit]",–
CCOc1ccc(-c2n[nH]c3c2C(c2cccs2)N(c2ccc(Br)cc2)C3=O)cc1 (stereo unspecified),"inconclusive: 12.6 µM [inhibitor, partial curve]",–
O=C(Nc1ccc(Oc2ccccc2)nc1)C1CCN(Cc2cccc(F)c2)CC1,–,inactive: -15.2%
O=S1(=O)C=C(Sc2nc3cc(Cl)ccc3o2)c2ccccc21,"inconclusive: 20 µM [inhibitor, single point]",–
O=C(COc1ccccc1[N+](=O)[O-])N1CCN(C(=O)c2ccco2)CC1,"inconclusive: 12.6 µM [inhibitor, single point]",–
Cc1ccc(N(Cc2ccccc2)C(=O)c2cc(S(=O)(=O)N3CCOCC3)ccc2F)cc1,"inconclusive: 25.1 µM [inhibitor, single point]",–
Cc1ccc(NC(=O)C2C3C=CC4(O3)C2C(=O)N(CCCN2CCCCC2)C4C(=O)NC2CCCCC2)cc1Cl (stereo unspecified),"inconclusive: 1.58 µM [inhibitor, partial curve, poor fit]",–
CCOC(=O)c1ccc(NC(=O)CSc2nc3cccnc3n2C)cc1,–,inactive: -28.1%
Cc1cc(C)cc(NC(=O)COc2ccc(C(=S)N3CCOCC3)cc2)c1,–,inactive: -0.337%
Cc1ccc(CC(=O)NNC(=O)c2cccs2)cc1C,–,inactive: 8.84%
CC(C)(C)c1cnnn1-c1ccc(C(=O)CCl)cc1,"inconclusive: 9.2 µM [inhibitor, partial curve]",–

# Structural class: the entries above containing a COOH group.
Compound,Potency,"activity change, negative = inhibition"
CC1=C(C#N)c2nc(N)c(C#N)c(C)c2/C1=C\c1ccc(-c2ccccc2C(=O)O)o1,–,inactive: -15.5%
CCn1c2ccccc2c2nc3cc(C(=O)O)ccc3nc21,–,inactive: -20.4%
